In PMC12130248:

Molecular target: Rbm24a-GFP (maternal, from the rbm24a-GFP knock-in line) (zebrafish)
Assay: affinity purification with mass spectrometry; GFP-Trap agarose beads on precleared lysates of about 2200 rbm24a-GFP KI embryos at 4 hpf, wild-type embryos as control; 10 mM Tris-HCl pH 7.5, 150 mM NaCl, 0.5 mM EDTA, 0.5% NP-40; 4 °C overnight; SDS-PAGE, gel pieces, LC-MS/MS

B1: Bucky ball (Buc), endogenous (protein, UniProt H0WFA5 1-639)
chain: MEGINNNSQPMGVGQPHHPVNHTRPFFYVQPPSQPYFMYQWPMNPYGHYGFPGPALHFGRPYMAPYQFMQYPGYVIPHAPMQPIDYRRINPHYPSVASYDLRVRHHFQNAGMHRETACSEVQTDPSDSVNKLIDKIESLKACELGSDKGPNNVVSSTPDVVQGEKLTRLNEDSNLEVATKECKEDPVTRPTTYSDSAYDAESSQGRLDECVFSDVLPLDSSSVHEEEEEEEKDVNEEDEPQTVADEICSQNEMSASTTSNVFCSGVQSIADPTECHDLEKLGDEQKQDIPSADAAAVIEPLISLSEDFDLPYQILRLPCNKTTTGLSLEREIDPLVYFDSPSTLLPPQNYLSSIGSAYSYSYYPQVTQERQSVLSPSIDELSSRDEMFSTDVEDLEVVPGHVYVGGGRLAEASDMPVRSRKELPSVDKTCSVCQKTCACCGSTLQDEVGMCKMAEHSHPERDEMSDQDCDYDLEAEVRSNCESPRVSKRKCCSRHALPSCGHHCAKHRHRKLLCEGQESCDLREQARVHPKGECCEEYGALAKADKRIQKGALCRPCIEQQWREGVVSDQENWASCGAKPRSWRQVTGPQDQGRTPLRRSTCKSIHQQRPRSEYNDYDETEFTYCQRGRGSMKKRGSRY
  binding: binds

These are yes or no findings as the source states them, for the method shown. Binding seen in cells or lysates may run through a third protein. These calls come from enrichment with a bait or labelling near it, and not all partners need be listed.
